In the supplement of paper PMC10849652:
This is one part of the list.

Sequences of proteins named here, by UniProt entry; tags and fusion partners are left off. A change or cut given only in a name is not applied to a line headed by its entry.
UniProt P52747: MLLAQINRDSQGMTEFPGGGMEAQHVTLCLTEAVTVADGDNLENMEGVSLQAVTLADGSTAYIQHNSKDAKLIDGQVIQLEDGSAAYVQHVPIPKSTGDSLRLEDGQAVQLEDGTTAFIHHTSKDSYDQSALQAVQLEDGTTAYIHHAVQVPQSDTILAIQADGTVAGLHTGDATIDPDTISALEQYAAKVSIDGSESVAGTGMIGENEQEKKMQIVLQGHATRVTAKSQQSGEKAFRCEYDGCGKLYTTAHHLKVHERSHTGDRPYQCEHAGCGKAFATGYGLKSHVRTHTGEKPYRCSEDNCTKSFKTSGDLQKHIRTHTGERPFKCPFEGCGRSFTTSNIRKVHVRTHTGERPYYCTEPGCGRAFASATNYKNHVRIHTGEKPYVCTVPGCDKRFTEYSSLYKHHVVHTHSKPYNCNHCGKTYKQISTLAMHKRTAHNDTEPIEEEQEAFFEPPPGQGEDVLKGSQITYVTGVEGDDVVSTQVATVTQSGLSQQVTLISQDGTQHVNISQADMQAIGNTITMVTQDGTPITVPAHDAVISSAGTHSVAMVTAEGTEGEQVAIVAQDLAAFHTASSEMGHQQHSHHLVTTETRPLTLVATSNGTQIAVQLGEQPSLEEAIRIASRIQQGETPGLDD
UniProt O60232: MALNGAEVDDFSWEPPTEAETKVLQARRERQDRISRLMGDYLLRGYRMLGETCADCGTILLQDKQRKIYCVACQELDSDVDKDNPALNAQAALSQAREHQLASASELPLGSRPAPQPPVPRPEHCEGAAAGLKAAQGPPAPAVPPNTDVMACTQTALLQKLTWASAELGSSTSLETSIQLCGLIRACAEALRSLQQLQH
UniProt Q9Y5V0: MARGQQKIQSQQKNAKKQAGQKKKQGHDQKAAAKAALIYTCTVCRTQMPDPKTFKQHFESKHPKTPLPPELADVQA
UniProt Q96NC0: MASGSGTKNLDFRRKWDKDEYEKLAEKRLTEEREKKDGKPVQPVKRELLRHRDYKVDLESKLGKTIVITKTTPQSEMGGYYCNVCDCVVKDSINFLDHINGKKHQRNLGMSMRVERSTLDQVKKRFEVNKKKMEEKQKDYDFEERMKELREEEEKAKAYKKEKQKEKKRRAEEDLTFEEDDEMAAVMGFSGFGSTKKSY
UniProt Q9UQR1: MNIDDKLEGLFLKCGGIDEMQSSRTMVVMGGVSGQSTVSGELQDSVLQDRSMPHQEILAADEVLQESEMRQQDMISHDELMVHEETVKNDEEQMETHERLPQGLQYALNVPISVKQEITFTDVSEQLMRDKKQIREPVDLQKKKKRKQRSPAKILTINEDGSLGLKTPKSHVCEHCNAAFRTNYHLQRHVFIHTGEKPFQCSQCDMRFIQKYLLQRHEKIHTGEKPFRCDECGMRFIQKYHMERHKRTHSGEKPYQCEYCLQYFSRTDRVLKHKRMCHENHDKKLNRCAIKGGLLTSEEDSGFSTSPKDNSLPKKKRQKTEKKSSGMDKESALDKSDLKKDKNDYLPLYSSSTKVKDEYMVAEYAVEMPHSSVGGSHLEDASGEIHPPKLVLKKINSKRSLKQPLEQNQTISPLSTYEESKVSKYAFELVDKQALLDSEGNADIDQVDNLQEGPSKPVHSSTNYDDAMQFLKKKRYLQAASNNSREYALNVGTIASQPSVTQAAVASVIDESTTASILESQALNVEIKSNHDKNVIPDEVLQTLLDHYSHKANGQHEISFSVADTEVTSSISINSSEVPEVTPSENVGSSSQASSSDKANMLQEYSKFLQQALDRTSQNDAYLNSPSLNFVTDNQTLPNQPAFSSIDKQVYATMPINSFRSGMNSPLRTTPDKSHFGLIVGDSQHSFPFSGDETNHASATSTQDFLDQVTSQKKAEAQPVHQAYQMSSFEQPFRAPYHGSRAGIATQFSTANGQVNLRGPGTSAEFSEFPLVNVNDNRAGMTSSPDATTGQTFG
UniProt O43149: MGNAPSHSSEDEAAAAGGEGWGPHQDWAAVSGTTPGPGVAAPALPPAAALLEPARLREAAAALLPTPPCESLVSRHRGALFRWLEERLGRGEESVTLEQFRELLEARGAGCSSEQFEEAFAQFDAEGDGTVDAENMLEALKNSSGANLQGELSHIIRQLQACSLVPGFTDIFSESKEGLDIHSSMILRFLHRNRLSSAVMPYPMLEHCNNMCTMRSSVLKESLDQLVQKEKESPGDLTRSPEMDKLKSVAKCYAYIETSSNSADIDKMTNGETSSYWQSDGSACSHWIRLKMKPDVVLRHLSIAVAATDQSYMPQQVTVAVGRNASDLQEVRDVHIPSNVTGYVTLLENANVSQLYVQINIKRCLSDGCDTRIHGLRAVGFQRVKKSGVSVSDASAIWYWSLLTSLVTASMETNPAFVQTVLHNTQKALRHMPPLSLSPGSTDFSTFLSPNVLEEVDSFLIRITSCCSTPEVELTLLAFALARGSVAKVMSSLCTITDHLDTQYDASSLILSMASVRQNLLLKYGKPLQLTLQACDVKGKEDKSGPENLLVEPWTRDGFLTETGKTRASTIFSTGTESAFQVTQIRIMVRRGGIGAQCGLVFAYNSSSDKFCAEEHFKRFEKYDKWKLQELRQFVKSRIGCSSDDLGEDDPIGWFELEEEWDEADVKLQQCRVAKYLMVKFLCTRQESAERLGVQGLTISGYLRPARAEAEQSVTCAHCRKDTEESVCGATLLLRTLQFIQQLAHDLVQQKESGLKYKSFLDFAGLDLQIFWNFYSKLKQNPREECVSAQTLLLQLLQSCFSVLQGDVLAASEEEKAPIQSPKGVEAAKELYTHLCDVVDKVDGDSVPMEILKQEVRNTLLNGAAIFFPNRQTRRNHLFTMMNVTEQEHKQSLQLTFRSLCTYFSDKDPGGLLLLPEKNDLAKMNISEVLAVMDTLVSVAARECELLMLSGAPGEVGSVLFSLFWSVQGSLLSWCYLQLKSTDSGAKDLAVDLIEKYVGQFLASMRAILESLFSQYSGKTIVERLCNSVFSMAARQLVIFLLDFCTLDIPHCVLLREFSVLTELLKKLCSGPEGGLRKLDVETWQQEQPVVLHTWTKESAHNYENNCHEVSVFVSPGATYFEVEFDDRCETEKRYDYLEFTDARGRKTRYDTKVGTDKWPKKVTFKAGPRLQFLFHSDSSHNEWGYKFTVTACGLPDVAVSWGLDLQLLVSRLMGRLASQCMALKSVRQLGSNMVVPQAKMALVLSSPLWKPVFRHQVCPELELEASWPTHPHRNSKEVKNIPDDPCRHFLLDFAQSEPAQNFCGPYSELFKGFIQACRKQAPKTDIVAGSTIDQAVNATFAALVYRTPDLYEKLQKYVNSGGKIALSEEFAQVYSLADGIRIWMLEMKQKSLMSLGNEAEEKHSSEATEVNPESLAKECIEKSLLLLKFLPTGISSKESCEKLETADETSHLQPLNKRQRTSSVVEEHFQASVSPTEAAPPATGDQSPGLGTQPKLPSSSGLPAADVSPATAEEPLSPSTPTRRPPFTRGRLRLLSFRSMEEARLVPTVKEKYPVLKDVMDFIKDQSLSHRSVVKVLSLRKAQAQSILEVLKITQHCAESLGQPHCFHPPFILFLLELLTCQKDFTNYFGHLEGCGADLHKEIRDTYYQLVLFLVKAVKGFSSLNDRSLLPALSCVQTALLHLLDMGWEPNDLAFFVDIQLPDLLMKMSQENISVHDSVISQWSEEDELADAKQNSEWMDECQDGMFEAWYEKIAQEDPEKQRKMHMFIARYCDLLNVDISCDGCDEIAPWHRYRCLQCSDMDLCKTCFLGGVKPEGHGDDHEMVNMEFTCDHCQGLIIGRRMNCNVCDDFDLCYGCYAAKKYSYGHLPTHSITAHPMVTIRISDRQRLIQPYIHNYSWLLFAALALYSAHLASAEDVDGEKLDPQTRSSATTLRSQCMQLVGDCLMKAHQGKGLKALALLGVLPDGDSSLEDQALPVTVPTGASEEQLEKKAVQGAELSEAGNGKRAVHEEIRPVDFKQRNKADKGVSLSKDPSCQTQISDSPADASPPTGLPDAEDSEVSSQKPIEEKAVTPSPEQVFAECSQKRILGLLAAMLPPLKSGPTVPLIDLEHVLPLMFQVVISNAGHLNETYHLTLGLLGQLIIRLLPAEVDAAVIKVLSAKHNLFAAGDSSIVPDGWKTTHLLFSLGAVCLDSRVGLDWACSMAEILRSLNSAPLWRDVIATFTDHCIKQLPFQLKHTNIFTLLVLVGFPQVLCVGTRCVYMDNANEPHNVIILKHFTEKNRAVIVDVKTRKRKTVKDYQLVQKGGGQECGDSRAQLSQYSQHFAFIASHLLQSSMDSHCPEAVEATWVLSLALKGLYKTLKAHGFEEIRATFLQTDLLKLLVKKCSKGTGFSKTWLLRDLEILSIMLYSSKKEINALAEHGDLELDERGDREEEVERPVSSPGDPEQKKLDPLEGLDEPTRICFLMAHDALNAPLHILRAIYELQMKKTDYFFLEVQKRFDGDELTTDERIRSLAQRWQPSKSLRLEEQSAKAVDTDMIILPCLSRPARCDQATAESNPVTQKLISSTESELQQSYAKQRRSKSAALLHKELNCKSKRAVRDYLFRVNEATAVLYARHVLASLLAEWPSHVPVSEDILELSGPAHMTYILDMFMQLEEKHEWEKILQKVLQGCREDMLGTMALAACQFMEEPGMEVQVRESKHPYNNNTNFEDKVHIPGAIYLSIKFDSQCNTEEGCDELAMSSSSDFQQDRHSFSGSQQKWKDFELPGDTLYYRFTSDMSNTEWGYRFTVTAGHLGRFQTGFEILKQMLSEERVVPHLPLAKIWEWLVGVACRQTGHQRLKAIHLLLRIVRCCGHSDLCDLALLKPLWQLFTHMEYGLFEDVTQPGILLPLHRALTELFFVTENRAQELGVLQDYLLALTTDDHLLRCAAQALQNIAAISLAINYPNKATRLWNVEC
UniProt O15014: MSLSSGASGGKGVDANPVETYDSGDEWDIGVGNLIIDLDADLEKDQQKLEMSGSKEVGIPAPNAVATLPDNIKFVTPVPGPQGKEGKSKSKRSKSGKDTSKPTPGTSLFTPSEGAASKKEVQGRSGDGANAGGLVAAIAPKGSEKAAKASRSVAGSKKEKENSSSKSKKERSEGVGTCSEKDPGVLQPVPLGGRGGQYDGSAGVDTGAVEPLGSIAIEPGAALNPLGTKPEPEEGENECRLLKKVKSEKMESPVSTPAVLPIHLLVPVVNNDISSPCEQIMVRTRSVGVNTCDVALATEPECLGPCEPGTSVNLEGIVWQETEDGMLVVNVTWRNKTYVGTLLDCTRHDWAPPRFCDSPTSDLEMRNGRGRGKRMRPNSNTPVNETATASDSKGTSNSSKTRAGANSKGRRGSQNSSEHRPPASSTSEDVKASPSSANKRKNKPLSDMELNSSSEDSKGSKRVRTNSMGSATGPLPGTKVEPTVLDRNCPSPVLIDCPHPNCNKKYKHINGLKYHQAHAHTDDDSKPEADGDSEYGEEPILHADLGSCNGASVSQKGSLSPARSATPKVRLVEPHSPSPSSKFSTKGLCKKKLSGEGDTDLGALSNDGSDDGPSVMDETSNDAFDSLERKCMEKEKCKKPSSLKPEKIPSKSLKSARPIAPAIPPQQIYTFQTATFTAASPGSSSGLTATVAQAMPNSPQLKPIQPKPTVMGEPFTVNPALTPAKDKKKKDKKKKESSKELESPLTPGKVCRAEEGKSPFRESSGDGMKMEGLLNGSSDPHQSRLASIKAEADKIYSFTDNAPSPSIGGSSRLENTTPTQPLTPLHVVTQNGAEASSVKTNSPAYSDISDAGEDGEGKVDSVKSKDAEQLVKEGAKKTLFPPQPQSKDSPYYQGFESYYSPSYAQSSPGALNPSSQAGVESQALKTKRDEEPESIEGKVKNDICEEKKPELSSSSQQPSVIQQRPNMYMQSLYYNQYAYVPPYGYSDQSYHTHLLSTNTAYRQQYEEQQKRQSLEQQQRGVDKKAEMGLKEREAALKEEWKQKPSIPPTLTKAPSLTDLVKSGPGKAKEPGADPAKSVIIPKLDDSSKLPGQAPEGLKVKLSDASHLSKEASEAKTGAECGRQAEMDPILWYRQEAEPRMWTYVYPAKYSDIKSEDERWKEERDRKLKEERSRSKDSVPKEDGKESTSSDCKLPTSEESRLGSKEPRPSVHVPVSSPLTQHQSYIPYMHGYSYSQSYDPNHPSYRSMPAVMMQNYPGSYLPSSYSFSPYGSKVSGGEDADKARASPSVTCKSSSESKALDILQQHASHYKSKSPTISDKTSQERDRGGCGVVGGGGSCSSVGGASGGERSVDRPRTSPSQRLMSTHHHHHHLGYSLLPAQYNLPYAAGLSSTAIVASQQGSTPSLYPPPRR
UniProt Q8NB15: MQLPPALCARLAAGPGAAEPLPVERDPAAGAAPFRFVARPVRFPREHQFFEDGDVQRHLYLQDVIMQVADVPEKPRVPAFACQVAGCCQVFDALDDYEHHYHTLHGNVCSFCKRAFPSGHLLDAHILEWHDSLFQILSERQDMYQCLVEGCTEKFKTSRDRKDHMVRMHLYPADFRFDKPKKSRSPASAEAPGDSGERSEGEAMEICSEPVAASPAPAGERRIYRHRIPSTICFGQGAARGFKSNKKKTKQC

compound: NC(=O)Nc1cc(-c2cccc(F)c2)sc1C(=O)N[C@H]1CCCNC1; experiment: log2 fold change, soluble protein after heating vs DMSO (PISA); higher = thermal stabilisation; K562 lysate, 10 uM; active = over 0.2 and 3.5 SD of the protein, either way, in both replicates (recomputed)
Summary of the method: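 Dounce homogenisation of K562 pellets in PBS pH 7.4 with 1 mM MgCl2 produced a crude extract, used at 1 mg/mL protein. Exposure to 10 μM compound lasted 30 min, and aliquots were then heated for 3 min across 48°C-58°C, pooled and brought to 0.5% NP-40 at 4°C. The supernatant after 21,000xg for 90 min was quantified by TMTpro 16plex LC-MS/MS with channel sums equalised. Duplicate values are given as log-two fold change in thermal stability relative to solvent controls.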

log2 fold change, inactive:
ZNF280A (UniProt P59817) -0.068
ZZZ3 (UniProt Q8IYH5) 0.021
ZNF143 (UniProt P52747) -0.01
ZNRD2 (UniProt O60232) -0.069
ZNF706 (UniProt Q9Y5V0) -0.042
ZMAT2 (UniProt Q96NC0) -0.044
ZNRD2 (UniProt G3V1B8) -0.034
ZNF148 (UniProt Q9UQR1) -0.007
ZWILCH (UniProt Q9H900) 0.019
ZNF638 (UniProt Q14966) -0.008
ZMYND8 isoform 19 (UniProt Q9ULU4) -0.004
ZNF622 (UniProt Q969S3) 0.006
ZNF787 (UniProt Q6DD87) 0.023
ZNF639 (UniProt Q9UID6) -0.004
hCG_1984214 (UniProt I3L0E3) 0.013
ZZEF1 (UniProt O43149) 0.008
ZKSCAN8 (UniProt Q15776) 0.005
ZMIZ1 (UniProt Q9ULJ6) 0.031
ZMIZ2 (UniProt Q8NF64) 0.065
ZNF24 (UniProt P17028) 0.017
ZNF672 (UniProt Q499Z4) 0.028
ZNF609 (UniProt O15014) 0.061
ZNF511 (UniProt Q8NB15) 0.002

For reference, part of the list above.
log2 fold change, inactive:
ZNF24 (UniProt P17028) 0.017
ZNF672 (UniProt Q499Z4) 0.028
ZNF609 (UniProt O15014) 0.061
ZNF511 (UniProt Q8NB15) 0.002
